No constants are given. Whether binding was seen depends on the method and setting. Binding can be weak; no strength is given.

In the test the target is Macaque α5β1 (Macaque). Description: FACS on macaque PBMC.

B1: 3C5 (antibody, IgG2, V domains shown)
VH: RVQLQESGPGLVKPSQTLSLTCTVSGGSIISGGYFWTWIRQHPGKGLEWIGYIYYSGSTYYSPSLKSRVTISVDTSKNQFSLKLSSVTAADTAVYYCTRAVPAAKGYYSYYGMDVWGQGTTVTVSS
VL: DIVMTQSPLSLPVTPGEPASISCRSSQSLLHSSGYNYLDWFLQKPGQSPQLLIYLSSNRASGVPDRFSGSGSGTDFTLKISRVEAEDVGVYYCMQALQTPFTFGPGTKVDIK
In the case of B1, the binding entry is on record as “binds”.

B2: 5B11 (antibody, IgG2, V domains shown)
VH: QVQLVESGGGVVQPGRSVRLSCAASGFTFSSYGMHWVRQTPGKGLEWVAIIWYDGGIEYYADSVKGRFTISRDNSKNTLYLQMNSLRAEDTAVYYCARDHRYGSSWFDYWGQGTLVTVSS
VL: DIQMTQSPSSLSASVGDRVTITCRASQGINNYLAWFQQKPGKAPKSLIYAASSLQSGVPSNFSGSGSGTDFTLSISSLQPEDFATYYCQQYKSYPLTFGGGTKVEIR
In the case of B2, the binding result is “binds”.

The values are drawn from US20120114667A1.
